Reference: US20210284690A1 (SWEDISH ORPHAN BIOVITRUM AB PUBL, published 2021)
Values belong to the binder of their own block, whether it stands above or below them.

Amino acid sequences for entries named in this document (tags omitted). Residues count along the entry.
UniProt P01031, 19-673 limits assumed, chain 1 of 2: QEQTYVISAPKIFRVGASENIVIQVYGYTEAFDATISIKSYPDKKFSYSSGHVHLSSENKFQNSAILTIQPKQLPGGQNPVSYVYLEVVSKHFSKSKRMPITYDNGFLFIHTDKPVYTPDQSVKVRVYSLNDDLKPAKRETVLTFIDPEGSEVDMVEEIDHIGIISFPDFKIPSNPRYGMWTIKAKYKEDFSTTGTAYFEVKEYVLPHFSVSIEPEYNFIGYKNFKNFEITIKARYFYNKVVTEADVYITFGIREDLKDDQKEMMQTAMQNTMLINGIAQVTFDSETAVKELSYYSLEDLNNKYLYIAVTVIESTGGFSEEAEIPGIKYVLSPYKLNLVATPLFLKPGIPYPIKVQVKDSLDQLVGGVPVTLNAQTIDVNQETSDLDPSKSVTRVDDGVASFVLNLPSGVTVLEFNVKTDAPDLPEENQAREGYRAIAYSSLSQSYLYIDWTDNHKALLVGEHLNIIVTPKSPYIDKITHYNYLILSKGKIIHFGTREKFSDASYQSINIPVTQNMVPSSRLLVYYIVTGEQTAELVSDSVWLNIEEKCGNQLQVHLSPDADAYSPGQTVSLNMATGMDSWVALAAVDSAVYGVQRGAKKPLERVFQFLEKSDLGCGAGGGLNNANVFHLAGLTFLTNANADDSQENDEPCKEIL
UniProt P01031, 678-1676 limits assumed, chain 2 of 2: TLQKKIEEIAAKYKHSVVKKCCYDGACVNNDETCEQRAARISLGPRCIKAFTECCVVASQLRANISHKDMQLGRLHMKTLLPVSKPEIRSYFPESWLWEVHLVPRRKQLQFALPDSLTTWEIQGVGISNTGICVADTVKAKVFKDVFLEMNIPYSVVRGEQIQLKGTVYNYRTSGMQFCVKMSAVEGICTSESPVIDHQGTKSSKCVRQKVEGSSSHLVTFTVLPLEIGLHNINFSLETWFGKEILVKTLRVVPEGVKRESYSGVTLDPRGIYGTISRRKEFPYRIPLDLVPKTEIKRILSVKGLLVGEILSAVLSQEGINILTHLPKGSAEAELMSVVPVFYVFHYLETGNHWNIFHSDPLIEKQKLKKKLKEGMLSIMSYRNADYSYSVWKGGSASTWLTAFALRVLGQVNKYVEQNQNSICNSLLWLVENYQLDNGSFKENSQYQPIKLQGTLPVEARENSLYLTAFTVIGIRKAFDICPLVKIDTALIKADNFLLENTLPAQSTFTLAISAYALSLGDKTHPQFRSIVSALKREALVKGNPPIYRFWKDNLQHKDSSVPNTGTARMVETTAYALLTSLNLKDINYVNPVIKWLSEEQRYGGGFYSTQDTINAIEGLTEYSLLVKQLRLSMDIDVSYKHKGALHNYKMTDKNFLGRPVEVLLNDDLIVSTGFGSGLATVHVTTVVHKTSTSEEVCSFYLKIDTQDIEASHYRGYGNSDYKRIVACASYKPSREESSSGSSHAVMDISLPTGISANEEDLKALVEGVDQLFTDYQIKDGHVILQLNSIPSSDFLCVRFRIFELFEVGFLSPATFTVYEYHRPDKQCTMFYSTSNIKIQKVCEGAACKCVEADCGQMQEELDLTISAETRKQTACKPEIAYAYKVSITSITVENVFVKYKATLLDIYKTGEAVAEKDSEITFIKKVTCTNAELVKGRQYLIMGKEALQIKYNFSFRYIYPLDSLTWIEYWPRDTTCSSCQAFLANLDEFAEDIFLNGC

What was measured:
[1] = molecular target: T1, Human C5 (A403, Quidel Corporation) (human, UniProt P01031 19-673; P01031 678-1676, limits assumed); test: cell-based or functional assay
[2] = molecular target: T1, Human C5 (A403, Quidel Corporation); test: SPR (Biacore T200), hC5 amine-coupled to CM5 chip, single cycle kinetics, Langmuir 1:1 fit

Kd [2]: 2.4 nM
B1: PSI0493, Z06175(bb1)-GS-[half-life extending polypeptide moiety] (designed binder)
chain: AEAKYAKEVLEAWDEIDRLPNLTIEQWLAFINKLDDDPSQSSELLSEAKKLSESQAPKGSPVPPTGDSEATPVPPTGDSETAPVPPTGDSGAPPVPPTGDSGAPPVPPTGDSGAPPVPPTGDSGAPPVPPTGDSGAPPVPPTGDSGAPPVPPTGDSGAPPVPPTGDSGAPPVPPTGDAGPPPVPPTGDSGAPPVPPTGDSGAPPVTPTGDSETAPVPPTGDSGAPPVPPTGDSEAAPVPPTDDSKEAGS
notes: expressed in E. coli
IC 50 (nM); inhibition of hemolysis of antibody sensitized sheep erythrocytes [1]: 0.5 nM

Kd [2]: 1.4 nM
B2: PSI0489, Z06175-Cys-PEG(L30kDa) (designed binder)
chain: AEAKYAKEVLEAWDEIDRLPNLTIEQWLAFINKLDDDPSQSSELLSEAKKLSESQAPKC
modifications: 30 kDa linear PEG conjugated at a Cys in the C-terminus
notes: also called PS10489; P510489: PEG30K
IC 50 (nM); inhibition of hemolysis of antibody sensitized sheep erythrocytes [1]: 1.5 nM
